Results from PubChem BioAssay AID540276 (National Center for Advancing Translational Sciences (NCATS), 2011).
Out of some 300,000 compounds screened, about 5,400 (1.8%) were called active. The inconclusive results got no clear call from the source; some entries with a clear call stand among them for comparison. The call rests on the fitted dose curve; tested in HEK293 cells. A potency beside an inconclusive call is a rough fit, not a confirmed value.

test: qHTS for inhibitors of binding or entry into cells for Marburg Virus; details: Marburg virus pseudotyped entry inhibition, cell reporter; activity change, negative = inhibition: at 37.8 µM (top of the series) unless noted
On the % scale 0 is the no-effect control and ±100 the full control effect; potency means the concentration at half of the fitted maximal effect.

Row | SMILES | Potency | activity change, negative = inhibition
1 | COc1ccc(NC(=O)C2CCCN(C)C2)cc1OCC(C)C (centres undefined) | inconclusive: 18.3 µM [inhibitor, single point] | 
2 | OC1/C(=C/c2ccc(C(F)(F)F)cc2)N2CCC1CC2 (centres undefined) | inconclusive: 35.5 µM [activator, single point] | 
3 | O=C(CC(C(=O)O)c1ccccc1)Nc1cccc2ccccc12 (centres undefined) | inconclusive: 35.5 µM [activator, single point] | 
4 | CC1CSc2n(-c3cccc(C(F)(F)F)c3)cc(-c3ccccc3)[n+]21 (centres undefined) | inconclusive: 35.5 µM [inhibitor, single point] | 
5 | CCOc1ccc(CC(=O)Nc2sc(Cc3ccccc3)cc2C(N)=O)cc1OCC | inconclusive: 23.1 µM [inhibitor, partial curve, poor fit] | 
6 | CNC(=O)NC(=O)C(C)OC(=O)CCCSc1nc2ccccc2s1 (centres undefined) | inconclusive: 15.8 µM [inhibitor, partial curve, poor fit] | 
7 | c1ccc(CSc2cc3ccccc3[nH]2)cc1 | inconclusive: 35.5 µM [inhibitor, single point] | 
8 | CC1=C([N+](=O)[O-])C(c2cccc(Br)c2)C2=C(N1)c1ccccc1C2=O (centres undefined) | active: 1.3 µM | 
9 | COc1ccc([C@H]2C[C@H](O)[C@@H](n3cc(-c4ccc(F)cc4)nn3)CN2C(=O)C2CCCCC2)cc1 | inconclusive: 0.0004 µM [inhibitor, full curve, poor fit] | 
10 | O=C(O)Cn1nnc(COc2ccccc2)n1 |  | inactive: -2.76% [at 46.1 µM]
11 | CCN1C(=O)c2ccccc2S(=O)c2ccc(C(=O)NCCN(CC(C)C)CC(C)C)cc21 (centres undefined) | inconclusive: 35.5 µM [inhibitor, single point] | 
12 | CCN(CCn1cccn1)C(=O)CC1C(=O)NCCN1Cc1ccc(F)c(F)c1 (centres undefined) |  | inactive: 0.0602%
13 | O=C(O)C1(c2ccccc2)CCN(S(=O)(=O)c2ccc(Br)cc2)CC1 | inconclusive: 1 µM [inhibitor, full curve, poor fit] | 
14 | C[n+]1c(-c2ccccc2)cc2c(=Cc3ccccc3)c3ccccc3n21 | inconclusive: 12.6 µM [inhibitor, partial curve, poor fit] | 
15 | CN(C)C(CNC(=O)CCc1nc2sc3c(c2c(=O)[nH]1)CCCC3)c1ccccc1 (centres undefined) | active: 10 µM | 
16 | CCOc1cc(CN2CCN(c3cccc(C(F)(F)F)c3)CC2)ccc1OC | inconclusive: 13 µM [inhibitor, partial curve] | 
17 | CC(=O)N1CCCC1c1nc2ccccc2n1Cc1cc(C)ccc1C (centres undefined) |  | inactive: -0.105% [at 46.1 µM]
18 | CCOC(=O)N1CCN(S(=O)(=O)N2CCCC(C(=O)NCc3ccccc3OC)C2)CC1 (centres undefined) | inconclusive: 2 µM [inhibitor, partial curve, poor fit] | 
19 | COC(=O)C1=C(C)N(Cc2ccc(C)cc2)C(=O)/C1=C\c1cc(OC)c(OC)c(OC)c1 | inconclusive: 35.5 µM [inhibitor, partial curve, poor fit] | 
20 | O=C(CNc1ccccc1Cl)c1ccc(Br)cc1 | inconclusive: 20 µM [inhibitor, partial curve, poor fit] | 
21 | CC(C)CNC(=O)C(=O)NCCCN1CCOCC1 | inconclusive: 0.282 µM [inhibitor, full curve, poor fit] | 
22 | N#Cc1c(N)n(-c2ccc(N)cc2)c2nc3ccccc3nc12 |  | inactive: 5.59% [at 46.1 µM]
23 | COc1cc(C2NC(=O)CCC2[N+](=O)[O-])cc(Br)c1OC (centres undefined) | inconclusive: 5.62 µM [inhibitor, partial curve, poor fit] | 

Row | SMILES | Potency | activity change, negative = inhibition
24 | CN(C)c1ccc(-c2noc(-c3ccccc3O)n2)cc1 | inconclusive: 7.3 µM [inhibitor, partial curve, poor fit] | 
25 | Cc1cc(O)cc(O)c1C(=O)Cc1cscn1 |  | inactive: 7.33% [at 46.1 µM]
26 | Cc1cc(C)c(C(=O)N2CCC(N3CCC(C(=O)NC(C)C)CC3)CC2)o1 | inconclusive: 15.8 µM [activator, single point] | 
27 | COCCn1c(C)cc(C(=O)COc2ccc(N(C)S(=O)(=O)c3ccc(C)cc3)cc2)c1C | inconclusive: 12.6 µM [inhibitor, single point] | 
28 | C=C/C(C)=C/[C@@]1(C)SC(=O)C(C)=C1O | inconclusive: 6.31 µM [activator, single point] | 
29 | NC(N)=N/N=C/c1ccc(OCc2ccccc2)cc1 | inconclusive: 29.1 µM [inhibitor, partial curve, poor fit] | 
30 | COc1ccc(C(NC(=O)CN2CCCCCC2)c2ccc(OC)cc2)cc1 | inconclusive: 12.6 µM [inhibitor, single point] | 
31 | CCC(C(=O)N(C)Cc1ccccc1)n1nc(C)c2sc3ccccc3c2c1=O (centres undefined) |  | inactive: 2.51% [at 46.1 µM]
32 | CC(=O)c1c(C)[nH]c(C(=O)Nc2ccc(C)cn2)c1C | active: 2 µM | 
33 | O=C(Nc1nnc(COc2ccccc2)s1)c1ccco1 |  | inactive: -8.47% [at 46.1 µM]
34 | CC1CCN(c2ccc(C(=O)NCc3ccco3)cc2[N+](=O)[O-])CC1 | inconclusive: 0.651 µM [activator, full curve, poor fit] | 
35 | Cc1cccc(NC(=O)CSc2nc(C)c(Cc3ccccc3)c(=O)[nH]2)c1C | inactive | 
36 | Cc1nc(Cl)c(C(=O)NC(=O)Nc2cccc(C(F)(F)F)c2)c(C)c1[N+](=O)[O-] | inconclusive: 35.5 µM [inhibitor, single point] | 
37 | COC(=O)c1ccc(NC(=O)CSc2nnc(-c3ccncc3)n2C)cc1 | inconclusive: 20.6 µM [activator, single point] | 
38 | COc1ccccc1C(=O)N(Cc1ccco1)Cc1ccccc1F |  | inactive: -0.14% [at 46.1 µM]
39 | O=S(=O)(Nc1ccc(O)c2ccccc12)c1cccs1 | inconclusive: 35.5 µM [inhibitor, single point] | 
40 | O=C(O)/C=C/c1ccc(S(=O)(=O)Nc2ccc(C(=O)NCC(=O)O)cc2)cc1 |  | inactive: 11.3% [at 46.1 µM]
41 | Cc1cccc(N2CCN(C(=O)/C=C/c3cccs3)CC2C)c1 (centres undefined) | inconclusive: 22.4 µM [inhibitor, single point] | 
42 | COc1ccccc1N1C(=O)[C@@H]2[C@H](C1=O)[C@H](C(=O)c1ccc(OC(C)=O)cc1)N1N=CC=C[C@@H]21 | inconclusive: 3.55 µM [inhibitor, single point] | 
43 | CCOC(=O)N1CCc2c(sc(NC(=O)c3ccc(Cl)s3)c2C(N)=O)C1 | inconclusive: 29.1 µM [inhibitor, single point] | 
44 | COc1ccccc1N1CCN(CC(O)c2ccccc2)CC1 (centres undefined) |  | inactive: -8.82% [at 46.1 µM]
45 | COc1cccc(N(C(=O)Cc2cccs2)C(C(=O)NC2CCCC2)c2ccncc2)c1 (centres undefined) | inconclusive: 35.5 µM [inhibitor, single point] | 
46 | O=C(/C=C/c1ccco1)NC1=NCCS1 |  | inactive: 4.71%

17 entries from above, with tabs.
Row	SMILES	Potency	activity change, negative = inhibition
24	CN(C)c1ccc(-c2noc(-c3ccccc3O)n2)cc1	inconclusive: 7.3 µM [inhibitor, partial curve, poor fit]	
25	Cc1cc(O)cc(O)c1C(=O)Cc1cscn1		inactive: 7.33% [at 46.1 µM]
26	Cc1cc(C)c(C(=O)N2CCC(N3CCC(C(=O)NC(C)C)CC3)CC2)o1	inconclusive: 15.8 µM [activator, single point]	
27	COCCn1c(C)cc(C(=O)COc2ccc(N(C)S(=O)(=O)c3ccc(C)cc3)cc2)c1C	inconclusive: 12.6 µM [inhibitor, single point]	
28	C=C/C(C)=C/[C@@]1(C)SC(=O)C(C)=C1O	inconclusive: 6.31 µM [activator, single point]	
29	NC(N)=N/N=C/c1ccc(OCc2ccccc2)cc1	inconclusive: 29.1 µM [inhibitor, partial curve, poor fit]	
31	CCC(C(=O)N(C)Cc1ccccc1)n1nc(C)c2sc3ccccc3c2c1=O (centres undefined)		inactive: 2.51% [at 46.1 µM]
32	CC(=O)c1c(C)[nH]c(C(=O)Nc2ccc(C)cn2)c1C	active: 2 µM	
33	O=C(Nc1nnc(COc2ccccc2)s1)c1ccco1		inactive: -8.47% [at 46.1 µM]
35	Cc1cccc(NC(=O)CSc2nc(C)c(Cc3ccccc3)c(=O)[nH]2)c1C	inactive	
36	Cc1nc(Cl)c(C(=O)NC(=O)Nc2cccc(C(F)(F)F)c2)c(C)c1[N+](=O)[O-]	inconclusive: 35.5 µM [inhibitor, single point]	
37	COC(=O)c1ccc(NC(=O)CSc2nnc(-c3ccncc3)n2C)cc1	inconclusive: 20.6 µM [activator, single point]	
40	O=C(O)/C=C/c1ccc(S(=O)(=O)Nc2ccc(C(=O)NCC(=O)O)cc2)cc1		inactive: 11.3% [at 46.1 µM]
41	Cc1cccc(N2CCN(C(=O)/C=C/c3cccs3)CC2C)c1 (centres undefined)	inconclusive: 22.4 µM [inhibitor, single point]	
42	COc1ccccc1N1C(=O)[C@@H]2[C@H](C1=O)[C@H](C(=O)c1ccc(OC(C)=O)cc1)N1N=CC=C[C@@H]21	inconclusive: 3.55 µM [inhibitor, single point]	
44	COc1ccccc1N1CCN(CC(O)c2ccccc2)CC1 (centres undefined)		inactive: -8.82% [at 46.1 µM]
45	COc1cccc(N(C(=O)Cc2cccs2)C(C(=O)NC2CCCC2)c2ccncc2)c1 (centres undefined)	inconclusive: 35.5 µM [inhibitor, single point]	

(more compounds)

Row | SMILES | Potency | activity change, negative = inhibition
47 | COc1cccc(Oc2coc3cc(OC(=O)N4CCOCC4)ccc3c2=O)c1 |  | inactive: -16.5% [at 46.1 µM]
48 | Cc1ccc(CNC(=O)C2CCC(=O)N(CC3CCCCC3)C2)o1 (centres undefined) |  | inactive: 1.14%
49 | CCOP(=O)(OCC)C(Nc1cccc(C(F)(F)F)c1)c1ccc(Br)cc1 (centres undefined) | inconclusive: 29.1 µM [inhibitor, single point] | 
50 | O=C(Nc1ccccc1)N(Cc1cccs1)c1ccc(Cl)cc1 | inconclusive: 35.5 µM [inhibitor, single point] | 
51 | C=CCOC(=O)N[C@H](c1ccccc1)[C@H](C)C=CCC(=O)OC |  | inactive: 9.26% [at 14.2 µM]
52 | Oc1ccc(CN2CCN(c3ccccc3)CC2)c2cccnc12 | inconclusive: 18.3 µM [inhibitor, single point] | 
53 | Fc1ccc(/C=N/Nc2cc(N3CCOCC3)ncn2)cc1 | inconclusive: 3.55 µM [inhibitor, full curve] | 
54 | O=C1ON=C(c2ccc([N+](=O)[O-])cc2)/C1=C/c1ccccc1O | inconclusive: 0.562 µM [inhibitor, full curve, poor fit] | 
55 | O=C(/C=C/c1ccc([N+](=O)[O-])cc1)OCC(=O)N1CCCC1 | inconclusive: 0.631 µM [inhibitor, partial curve, poor fit] | 
56 | CCOc1ccc(NC(=O)CC2C(=O)N(c3cccc(C)c3)C(=O)N2CCC2=CCCCC2)cc1 (centres undefined) | inconclusive: 35.5 µM [inhibitor, single point] | 
57 | O=C(O)c1cc(N2C(=O)C=CC2=O)cc(N2C(=O)C=CC2=O)c1 | active: 10 µM | 
58 | COC(=O)Cc1ccc(NC(=O)c2ccc(C)c(C)c2)cc1 |  | inactive: -17.9%
59 | Cn1cccc1C(=O)NC(=O)COC(=O)CNC(=O)c1ccc(Cl)cc1Cl | inconclusive: 0.316 µM [activator, full curve, poor fit] | 
60 | COc1cc(C(=S)N2CCCC2)ccc1OS(=O)(=O)c1ccc(NC(C)=O)cc1 |  | inactive: -24.4%
61 | CCOc1ccc(/C=C2\CCc3ccccc3C2=O)cc1 | inconclusive: 7.94 µM [inhibitor, partial curve, poor fit] | 
62 | CN(C)S(=O)(=O)c1cccc(NC(=S)Nc2cccc3cnccc23)c1 | inconclusive: 6.31 µM [inhibitor, partial curve, poor fit] | 
63 | N#Cc1ccc(OCC(=O)OCC(=O)c2ccccc2)cc1 |  | inactive: -6.82%
64 | CC(=O)c1ccc(OCCCC(=O)NCCc2ccc(C(F)(F)F)cc2)cc1 |  | inactive: 0.409% [at 46.1 µM]
65 | COc1ccc(S(=O)(=O)NCC(c2ccc3c(c2)OCO3)N2CCN(c3ccccc3)CC2)cc1 (centres undefined) | inconclusive: 15.8 µM [inhibitor, partial curve, poor fit] | 
66 | Cc1nc(-c2ccccc2)sc1-c1nc(-c2ccncc2)ncc1S(=O)(=O)c1ccccc1 | active: 4.47 µM | 
67 | O=C(CCS(=O)(=O)c1ccccc1)Nc1ccc(-c2nc3ccccc3s2)cc1 | active: 14.1 µM | 
68 | CCN(CC)CCCn1c2c(c(SCC(=O)Nc3ccc4c(c3)OCCO4)nc1=O)CCC2 | inconclusive: 6.31 µM [activator, single point] | 
69 | Cc1csc(NC(=O)CCNC(=O)c2ccccc2Cl)n1 | inconclusive: 3.98 µM [activator, full curve, poor fit] | 
